Patent US9636289B2, “Composition for preventing or treating hair loss or promoting hair growth comprising secoiridoid glucoside derivatives” (priority 2012, dated 2017)
Entries after “also recorded” stand apart in the source; their conditions may differ. At least one structure is not confirmed: it was looked up by name or label, or the drawing left a doubt.

What was measured:
[1] = test system: C57BL/6N mice; assay: Hair re-growth in hair-removed telogen mice, subcutaneous injection for 6 weeks (visual observation, hair length); assay type: in vivo, mouse
[2] = test system: hair follicles; assay: Histological analysis of the back skin (hair growth cycle, hair follicles); assay type: in vivo, mouse
Source text: At 6 weeks after subcutaneous injection, mice were sacrificed. Their back skin tissue samples were isolated using scissors and forceps and fixed by formalin. After dehydration with serial alcohol and xylene, the tissues were paraffinized. Paraffinized tissues were sectioned using a microtomb in a thickness of 5 μm and used alcohol and xylene to remove paraffin. Then, the tissues were stained with hematoxyline/eosin, followed by observation of histological changes in hair follicles under an optical microscope. The hair growth cycles in the tissues were pathologically diagnosed by specialists, and quantity and diameter of hair follicle were measured under an optical microscope.

Nc1cc(N2CCCCC2)nc(N)[n+]1[O-] [minoxidil, reference compound]
hair length, difference to the negative control group ([1]; after 4 weeks): no significant difference | hair length ([1]; at 5 weeks): hair length was increased | hair follicle length / appearance ([2]; back skin at 6 weeks): became longer and they were expressed into skin | Histological diagnosis of hair growth cycle, individual animals (Animal ID 1-4) ([2]; back skin at 6 weeks after s.c. injection): Telogen; also recorded: Anagen | diameter of the hair follicles ([2]; image analysis, compared to the negative control group): significantly increased | number of hair follicles ([2]; optical microscope 40× magnification, compared to the negative control group, FIG. 3): significantly increased
